Our source for the binding values is publication PMC4546468.

Chains of the proteins cited; added tags and fusions are not shown. Lines headed by an entry give the natural chain unless they say otherwise; changes in a name come on top. Residues count along the entry.
UniProt P18084: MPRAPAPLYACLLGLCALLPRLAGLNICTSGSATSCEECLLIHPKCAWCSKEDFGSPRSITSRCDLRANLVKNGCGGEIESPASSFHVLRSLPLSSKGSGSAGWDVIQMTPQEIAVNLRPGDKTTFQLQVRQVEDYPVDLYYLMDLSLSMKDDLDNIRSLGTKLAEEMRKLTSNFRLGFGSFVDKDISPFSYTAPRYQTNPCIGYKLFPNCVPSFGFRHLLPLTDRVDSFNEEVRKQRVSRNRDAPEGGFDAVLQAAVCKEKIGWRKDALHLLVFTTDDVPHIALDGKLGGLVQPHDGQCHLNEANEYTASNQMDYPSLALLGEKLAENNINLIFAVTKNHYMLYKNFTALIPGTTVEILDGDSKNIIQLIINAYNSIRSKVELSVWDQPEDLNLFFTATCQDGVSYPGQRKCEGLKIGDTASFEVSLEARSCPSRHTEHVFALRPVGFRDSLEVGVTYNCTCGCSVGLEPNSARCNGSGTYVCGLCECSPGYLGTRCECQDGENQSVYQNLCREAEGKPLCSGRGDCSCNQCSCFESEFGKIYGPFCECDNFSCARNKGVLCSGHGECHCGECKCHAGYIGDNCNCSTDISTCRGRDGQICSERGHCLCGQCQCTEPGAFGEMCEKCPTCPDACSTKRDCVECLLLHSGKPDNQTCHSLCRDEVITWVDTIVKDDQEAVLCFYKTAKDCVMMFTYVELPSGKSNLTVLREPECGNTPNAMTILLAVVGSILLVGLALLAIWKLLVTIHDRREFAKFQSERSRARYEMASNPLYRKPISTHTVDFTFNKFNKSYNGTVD
UniProt P11362, residues 22-822: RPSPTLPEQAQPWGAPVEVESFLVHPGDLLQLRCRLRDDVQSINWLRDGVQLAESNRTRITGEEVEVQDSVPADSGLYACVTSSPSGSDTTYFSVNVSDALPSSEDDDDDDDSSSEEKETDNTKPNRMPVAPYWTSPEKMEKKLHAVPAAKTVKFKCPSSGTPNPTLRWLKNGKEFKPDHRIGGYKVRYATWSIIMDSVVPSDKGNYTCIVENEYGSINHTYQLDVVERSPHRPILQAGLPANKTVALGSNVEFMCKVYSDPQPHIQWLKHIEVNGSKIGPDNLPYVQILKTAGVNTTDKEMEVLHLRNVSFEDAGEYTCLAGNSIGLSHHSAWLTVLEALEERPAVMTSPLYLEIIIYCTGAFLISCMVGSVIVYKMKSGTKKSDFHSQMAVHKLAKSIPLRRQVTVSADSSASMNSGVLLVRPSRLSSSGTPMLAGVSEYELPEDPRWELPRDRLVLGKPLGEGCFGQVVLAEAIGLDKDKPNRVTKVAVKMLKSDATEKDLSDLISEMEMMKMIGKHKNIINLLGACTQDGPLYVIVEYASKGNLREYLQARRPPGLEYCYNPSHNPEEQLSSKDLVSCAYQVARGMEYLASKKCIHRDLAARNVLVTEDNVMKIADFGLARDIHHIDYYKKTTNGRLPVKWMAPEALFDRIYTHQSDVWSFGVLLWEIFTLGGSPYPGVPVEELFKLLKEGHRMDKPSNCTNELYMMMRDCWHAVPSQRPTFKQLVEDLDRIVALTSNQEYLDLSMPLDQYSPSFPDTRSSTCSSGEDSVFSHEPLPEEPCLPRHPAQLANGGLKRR

Results are given in words; binding and its absence hold for the method and conditions named. In cells and extracts the contact can be indirect.

In this test the target is β5 integrin (human (endogenous; the cells of this experiment are not named, all cells of the paper are human)) (UniProt P18084). Nature of the test: co-IP; endogenous proteins; cells lysed in RIPA non-denaturant lysis buffer, supernatant with primary antibody (1/50) 12 hours at 4°C, protein A magnetic beads, Western blotting; also after surface cross-linking of cells with 2 mM DSP for 30 minutes at room temperature; tested upon FGF-2 presentation.

“FGFR1 (from UniProt P11362 22-822) (receptor)”: the binding result was “no binding”.
